Measured values from PubChem BioAssay AID1347076 (National Center for Advancing Translational Sciences (NCATS), 2019).
Out of some 400,000 compounds screened, about 13,000 (3.2%) were called active. The inconclusive results got no clear call from the source; some entries with a clear call stand among them for comparison. Calls come from the whole dose curve; as a rule, active = well fitted cell-killing curve with a large enough effect; inconclusive = small, poorly fitted or top-dose-only effect, or effect the other way; inactive = flat fitted curve, though single readings scatter. Potencies of inconclusive entries are doubtful fits and often do not repeat.

Experiment: qHTS assay for MDR1-selective chemotherapeutics: Primary screen using the drug-selected MDR subline cells KB-V1; note: nearly all actives have a fitted effect of over 60% in size
Conditions: KB-V1 MDR cells viability, CellTiter-Glo, 72 h; series mostly up to 46.1 µM
Procedure, shortened: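 Compound-treated KB-V1 multidrug-resistant cells, 72 h, 37 degrees C; viability by CellTiter-Glo. Fitted qHTS curves give the values.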
Potency is the fitted concentration of half-maximal effect.

Compound	Potency
CCC(C)NS(=O)(=O)c1ccc(S(=O)(=O)Nc2cc3c(cc2C(C)=O)OCO3)cc1 (centres undefined)	inconclusive: 23.1 µM [cytotoxic, partial curve]
CCOC(=O)c1ccc(NC(=O)CCCN2C(=O)NC3(CCCC3)C2=O)cc1	inconclusive: 29.1 µM [rising, single point]
CCCCCC(=O)N/N=C(\C)c1ccc(NC(=O)c2ccco2)cc1	inconclusive: 2.91 µM [cytotoxic, partial curve]
CCCN1CCN(C(=S)Nc2ccc([N+](=O)[O-])cc2)CC1	active: 20.6 µM
COc1cc(-c2cc3nc(NCCc4ccncc4)ccn3n2)cc(OC)c1OC	inactive
CCn1c(CNC(=O)c2ccccc2F)nnc1SCC(=O)Nc1nncs1	inactive
C=CCN1C(=O)/C(=C\C=C2\N(C)c3ccccc3C2(C)C)SC1=S	inactive
Cc1ccc(NC(=S)NCC23C=CC(O2)C2C(=O)N(c4ccc(C)cc4)C(=O)C23)cc1 (centres undefined)	active: 13 µM
C/C(=N\NC(N)=O)c1c(F)cccc1F	inconclusive: 16.4 µM [cytotoxic, partial curve, poor fit]
COc1ccccc1N1CCN(C(=O)CSc2nc3ccccc3o2)CC1	active: 20.6 µM
Cc1noc(/C=C/N(C)C)c1S(=O)(=O)N1CCCC(C(=O)NCc2ccco2)C1 (centres undefined)	inconclusive: 2.91 µM [rising, partial curve, poor fit]
COc1ccc(NC(=O)C(c2ccc(OC)cc2)N(C)C(=O)CNC(C)=O)cc1 (centres undefined)	inconclusive: 18.4 µM [rising, partial curve, poor fit]
O=C(Cc1c(O)c2ccccc2[nH]c1=O)OC1CCCCC1	inconclusive: 16.4 µM [rising, single point]
Cc1cc(C)n(-c2nc3ccccc3nc2N2CCCC2)n1	active: 13 µM
Cc1cccc(-c2noc(CN(C(C)C)S(=O)(=O)c3ccc(F)cc3)n2)c1	inconclusive: 13 µM [cytotoxic, partial curve]
O=C(NC1CC1)c1ccc(CSCc2ccc(Cl)cc2)o1	inconclusive: 29.1 µM [cytotoxic, single point]
NS(=O)(=O)c1cccc(NC(=O)CSc2nnc(C3CC3)n2Cc2ccccc2)c1	inactive
N#CC1=C(N)C(C#N)(C#N)[C@H](c2ccoc2)[C@H]2CN(Cc3ccccc3)CC=C12	inconclusive: 16.4 µM [cytotoxic, partial curve, poor fit]
CCOC(=O)C1(Cc2ccccc2)CCN(Cc2cccc3c2OCO3)CC1	inconclusive: 13 µM [cytotoxic, partial curve]

Arranged by count of non-hydrogen atoms (high to low): 3 of the compounds above.
Compound	Potency
N#CC1=C(N)C(C#N)(C#N)[C@H](c2ccoc2)[C@H]2CN(Cc3ccccc3)CC=C12	inconclusive: 16.4 µM [cytotoxic, partial curve, poor fit]
CCn1c(CNC(=O)c2ccccc2F)nnc1SCC(=O)Nc1nncs1	inactive
Cc1cc(C)n(-c2nc3ccccc3nc2N2CCCC2)n1	active: 13 µM
